# Assay results reported in the supplement of paper PMC4604168 (melanoma cell lines).
# The list shows a part of the results. Repeats are few or missing, and single values can be far off.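 Cells were imaged in 1,536-well plates, and nuclei stained with an antibody against cleaved PARP were counted against all DNA-stained nuclei to give the apoptosis fraction. Screening doses were chosen to leave most cells alive, and resting and induced cleaved-PARP levels differ strongly between cell lines.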
# System: 501Mel
# Test: cleaved PARP positive nuclei fraction relative to DMSO control; melanoma cells; higher = more apoptosis
# Conditions: library dose: low library concentration; 72 h
row,SMILES,cleaved PARP positive nuclei fraction [%]
1,"O=c1[nH]nc(Sc2ncc([N+](=O)[O-])s2)n1-c1ccc2c(c1)OCCO2 + N.N.[Cl][Pt][Cl] [cisplatin] (first compound 0.2 µM, partner dose 1.6 µM)",99.6
2,"N.N.[Cl][Pt][Cl] [cisplatin] + C=C(c1ccc(C(=O)O)cc1)c1cc2c(cc1C)C(C)(C)CCC2(C)C [Bexarotene] (first compound 1.6 µM, partner dose 2 µM)",103
3,"C=C(c1ccc(C(=O)O)cc1)c1cc2c(cc1C)C(C)(C)CCC2(C)C [Bexarotene] + C[As](C)SC[C@H](NC(=O)CC[C@H](N)C(=O)O)C(=O)NCC(=O)O [Darinaparsin] (first compound 2 µM, partner dose 0.4 µM)",42
4,"Cc1cc(Nc2cc(N3CCN(C)CC3)nc(Sc3ccc(NC(=O)C4CC4)cc3)n2)n[nH]1 [Tozasertib] + Cn1cc(C2=C(c3cn(C4CCN(Cc5ccccn5)CC4)c4ccccc34)C(=O)NC2=O)c2ccccc21 [Enzastaurin] (first compound 0.006 µM, partner dose 0.8 µM)",249
5,"CCN(CC)CCNC(=O)c1c(C)[nH]c(/C=C2\C(=O)Nc3ccc(F)cc32)c1C [sunitinib] + N.N.[Cl][Pt][Cl] [cisplatin] (first compound 0.4 µM, partner dose 1.6 µM)",132
6,"Cn1cc(C2=C(c3cn(C4CCN(Cc5ccccn5)CC4)c4ccccc34)C(=O)NC2=O)c2ccccc21 [Enzastaurin] + OCc1c[nH]c2ccccc12 [Indole-3-carbinol] (first compound 0.8 µM, partner dose 0.8 µM)",96.2
7,"C[As](C)SC[C@H](NC(=O)CC[C@H](N)C(=O)O)C(=O)NCC(=O)O [Darinaparsin] + Nc1cccc2c1CN(C1CCC(=O)NC1=O)C2=O [lenalidomide] (first compound 0.4 µM, partner dose 1 µM)",87.2
8,"C[C@]12O[C@H](C[C@]1(O)CO)n1c3ccccc3c3c4c(c5c6ccccc6n2c5c31)CNC4=O [Lestaurtinib] + Clc1ccc(Nc2nnc(Cc3ccncc3)c3ccccc23)cc1 [vatalanib] (first compound 0.004 µM, partner dose 2 µM)",189
9,"Cn1cc(C2=C(c3cn(C4CCN(Cc5ccccn5)CC4)c4ccccc34)C(=O)NC2=O)c2ccccc21 [Enzastaurin] + O=C(O)c1ccc2c(c1)nc(Nc1cccc(Cl)c1)c1ccncc12 [CX4945] (first compound 0.8 µM, partner dose 0.4 µM)",70.5
10,"C[C@]12O[C@H](C[C@]1(O)CO)n1c3ccccc3c3c4c(c5c6ccccc6n2c5c31)CNC4=O [Lestaurtinib] + Nc1ncn([C@H]2C[C@H](O)[C@@H](CO)O2)c(=O)n1 [decitabine] (first compound 0.004 µM, partner dose 0.1 µM)",89.1
11,"Cn1cc(C2=C(c3cn(C4CCN(Cc5ccccn5)CC4)c4ccccc34)C(=O)NC2=O)c2ccccc21 [Enzastaurin] + C[C@]1(c2nc3c(C(N)=O)cccc3[nH]2)CCCN1 [Veliparib] (first compound 0.8 µM, partner dose 1.4 µM)",140
12,"Cc1ccc(Nc2nccc(N(C)c3ccc4c(C)n(C)nc4c3)n2)cc1S(N)(=O)=O [Pazopanib] + N.N.[Cl][Pt][Cl] [cisplatin] (first compound 0.4 µM, partner dose 1.6 µM)",50.2
13,"C[As](C)SC[C@H](NC(=O)CC[C@H](N)C(=O)O)C(=O)NCC(=O)O [Darinaparsin] + Cn1c(Nc2ccc(C(F)(F)F)cc2)nc2cc(Oc3ccnc(-c4ncc(C(F)(F)F)[nH]4)c3)ccc21 [CHIR265] (first compound 0.4 µM, partner dose 0.08 µM)",187
14,"CC[C@]1(O)C[C@H]2CN(CCc3c([nH]c4ccccc34)[C@@](C(=O)OC)(c3cc4c(cc3OC)N(C=O)[C@H]3[C@@](O)(C(=O)OC)[C@H](OC(C)=O)[C@]5(CC)C=CCN6CC[C@]43[C@@H]65)C2)C1 [vincristine] + N.N.[Cl][Pt][Cl] [cisplatin] (first compound 0.0001 µM, partner dose 1.6 µM)",150
15,"O=C(/C=C/c1cccnc1)NCCCCC1CCN(C(=O)c2ccccc2)CC1 + N.N.[Cl][Pt][Cl] [cisplatin] (first compound 0.01 µM, partner dose 1.6 µM)",104
16,"Nc1ncn([C@H]2C[C@H](O)[C@@H](CO)O2)c(=O)n1 [decitabine] + C[As](C)SC[C@H](NC(=O)CC[C@H](N)C(=O)O)C(=O)NCC(=O)O [Darinaparsin] (first compound 0.1 µM, partner dose 0.4 µM)",134
17,"C#Cc1cccc(Nc2ncnc3cc(OCCOC)c(OCCOC)cc23)c1 [erlotinib] + C[As](C)SC[C@H](NC(=O)CC[C@H](N)C(=O)O)C(=O)NCC(=O)O [Darinaparsin] (first compound 0.8 µM, partner dose 0.4 µM)",95.2
18,"Cn1cc(C2=C(c3cn(C4CCN(Cc5ccccn5)CC4)c4ccccc34)C(=O)NC2=O)c2ccccc21 [Enzastaurin] + CC(=O)c1c(C)c2cnc(Nc3ccc(N4CCNCC4)cn3)nc2n(C2CCCC2)c1=O [palbociclib] (first compound 0.8 µM, partner dose 0.04 µM)",119
19,"N.N.[Cl][Pt][Cl] [cisplatin] + O=C(O)[C@@H]1[O][Sb](=[O])([O][Sb]2(=[O])[O][C@H]([C@H](O)CO)[C@H](O)[C@H](C(=O)O)[O]2)[O][C@H]([C@H](O)CO)[C@@H]1O [stibogluconate] (first compound 1.6 µM, partner dose 2 µM)",75.9
20,"Cc1cn(-c2cc(NC(=O)c3ccc(C)c(Nc4nccc(-c5cccnc5)n4)c3)cc(C(F)(F)F)c2)cn1 [nilotinib] + C[C@]12O[C@H](C[C@]1(O)CO)n1c3ccccc3c3c4c(c5c6ccccc6n2c5c31)CNC4=O [Lestaurtinib] (first compound 0.2 µM, partner dose 0.004 µM)",78
21,"CO[C@H]1C[C@@H]2CC[C@@H](C)[C@@](O)(O2)C(=O)C(=O)N2CCCC[C@H]2C(=O)O[C@H]([C@H](C)C[C@@H]2CC[C@@H](OCCO)[C@H](OC)C2)CC(=O)[C@H](C)/C=C(\C)[C@@H](O)[C@@H](OC)C(=O)[C@H](C)C[C@H](C)/C=C/C=C/C=C/1C [everolimus] + C[As](C)SC[C@H](NC(=O)CC[C@H](N)C(=O)O)C(=O)NCC(=O)O [Darinaparsin] (first compound 0.02 µM, partner dose 0.4 µM)",303
22,"Cn1cc(C2=C(c3cn(C4CCN(Cc5ccccn5)CC4)c4ccccc34)C(=O)NC2=O)c2ccccc21 [Enzastaurin] + C#Cc1cccc(Nc2ncnc3cc(OCCOC)c(OCCOC)cc23)c1 [erlotinib] (first compound 0.8 µM, partner dose 0.8 µM)",28.4
23,"C[C@]12O[C@H](C[C@]1(O)CO)n1c3ccccc3c3c4c(c5c6ccccc6n2c5c31)CNC4=O [Lestaurtinib] + CC(=O)O[C@@]12CO[C@@H]1C[C@H](O)[C@@]1(C)C(=O)[C@H](O)C3=C(C)[C@@H](OC(=O)[C@H](O)[C@@H](NC(=O)OC(C)(C)C)c4ccccc4)C[C@@](O)([C@@H](OC(=O)c4ccccc4)[C@H]21)C3(C)C [Docetaxel] (first compound 0.004 µM, partner dose 0.0001 µM)",262
24,"C[C@]12O[C@H](C[C@]1(O)CO)n1c3ccccc3c3c4c(c5c6ccccc6n2c5c31)CNC4=O [Lestaurtinib] + CS(=O)(=O)c1ccc(C(=O)Nc2ccc(Cl)c(-c3ccccn3)c2)c(Cl)c1 [vismodegib] (first compound 0.004 µM, partner dose 1 µM)",87.7
25,"N.N.[Cl][Pt][Cl] [cisplatin] + C=CCNC1=C2C[C@@H](C)C[C@H](OC)[C@H](O)[C@@H](C)/C=C(\C)[C@H](OC(N)=O)[C@@H](OC)/C=C\C=C(/C)C(=O)NC(=CC1=O)C2=O [Tanespimycin] (first compound 1.6 µM, partner dose 0.002 µM)",182
26,"O=C(/C=C/c1cccnc1)NCCCCC1CCN(C(=O)c2ccccc2)CC1 + C[C@]12O[C@H](C[C@]1(O)CO)n1c3ccccc3c3c4c(c5c6ccccc6n2c5c31)CNC4=O [Lestaurtinib] (first compound 0.01 µM, partner dose 0.004 µM)",123
27,"N.N.[Cl][Pt][Cl] [cisplatin] + OCc1c[nH]c2ccccc12 [Indole-3-carbinol] (first compound 1.6 µM, partner dose 0.8 µM)",99.7
28,"Cn1cc(C2=C(c3cn(C4CCN(Cc5ccccn5)CC4)c4ccccc34)C(=O)NC2=O)c2ccccc21 [Enzastaurin] + CO[C@H]1C[C@@H]2CC[C@@H](C)[C@@](O)(O2)C(=O)C(=O)N2CCCC[C@H]2C(=O)O[C@H]([C@H](C)C[C@@H]2CC[C@@H](OCCO)[C@H](OC)C2)CC(=O)[C@H](C)/C=C(\C)[C@@H](O)[C@@H](OC)C(=O)[C@H](C)C[C@H](C)/C=C/C=C/C=C/1C [everolimus] (first compound 0.8 µM, partner dose 0.02 µM)",4100

# Two entries from above, bar-delimited.
row | SMILES | cleaved PARP positive nuclei fraction [%]
21 | CO[C@H]1C[C@@H]2CC[C@@H](C)[C@@](O)(O2)C(=O)C(=O)N2CCCC[C@H]2C(=O)O[C@H]([C@H](C)C[C@@H]2CC[C@@H](OCCO)[C@H](OC)C2)CC(=O)[C@H](C)/C=C(\C)[C@@H](O)[C@@H](OC)C(=O)[C@H](C)C[C@H](C)/C=C/C=C/C=C/1C [everolimus] + C[As](C)SC[C@H](NC(=O)CC[C@H](N)C(=O)O)C(=O)NCC(=O)O [Darinaparsin] (first compound 0.02 µM, partner dose 0.4 µM) | 303
22 | Cn1cc(C2=C(c3cn(C4CCN(Cc5ccccn5)CC4)c4ccccc34)C(=O)NC2=O)c2ccccc21 [Enzastaurin] + C#Cc1cccc(Nc2ncnc3cc(OCCOC)c(OCCOC)cc23)c1 [erlotinib] (first compound 0.8 µM, partner dose 0.8 µM) | 28.4
